The supplement of paper PMC10849652
The other results are listed elsewhere or left out.

Amino acid sequences for entries named in this document (tags omitted). A change or cut given only in a name is not applied to a line headed by its entry.
UniProt Q8N131: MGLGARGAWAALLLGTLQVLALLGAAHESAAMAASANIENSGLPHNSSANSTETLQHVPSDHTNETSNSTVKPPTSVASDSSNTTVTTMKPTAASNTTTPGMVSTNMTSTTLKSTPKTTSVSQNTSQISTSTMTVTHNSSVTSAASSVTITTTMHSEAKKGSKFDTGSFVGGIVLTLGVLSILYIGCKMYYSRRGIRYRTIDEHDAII
UniProt Q99805: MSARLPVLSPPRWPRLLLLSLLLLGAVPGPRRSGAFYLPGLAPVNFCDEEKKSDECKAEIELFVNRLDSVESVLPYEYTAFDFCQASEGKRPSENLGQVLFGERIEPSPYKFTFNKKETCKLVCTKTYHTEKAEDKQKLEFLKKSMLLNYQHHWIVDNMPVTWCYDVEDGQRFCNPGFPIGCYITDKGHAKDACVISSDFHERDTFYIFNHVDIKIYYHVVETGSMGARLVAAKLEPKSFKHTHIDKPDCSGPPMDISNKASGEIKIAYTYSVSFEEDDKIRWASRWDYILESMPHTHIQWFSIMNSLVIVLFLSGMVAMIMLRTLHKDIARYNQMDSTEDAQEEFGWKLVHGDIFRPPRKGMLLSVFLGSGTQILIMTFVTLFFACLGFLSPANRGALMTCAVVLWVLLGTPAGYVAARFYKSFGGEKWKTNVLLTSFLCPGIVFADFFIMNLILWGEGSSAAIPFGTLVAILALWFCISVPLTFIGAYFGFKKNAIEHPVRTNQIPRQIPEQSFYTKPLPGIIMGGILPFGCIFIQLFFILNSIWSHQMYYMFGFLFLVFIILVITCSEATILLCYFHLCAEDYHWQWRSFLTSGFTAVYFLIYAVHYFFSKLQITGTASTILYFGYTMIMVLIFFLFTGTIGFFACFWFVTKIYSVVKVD
UniProt Q8NDZ6: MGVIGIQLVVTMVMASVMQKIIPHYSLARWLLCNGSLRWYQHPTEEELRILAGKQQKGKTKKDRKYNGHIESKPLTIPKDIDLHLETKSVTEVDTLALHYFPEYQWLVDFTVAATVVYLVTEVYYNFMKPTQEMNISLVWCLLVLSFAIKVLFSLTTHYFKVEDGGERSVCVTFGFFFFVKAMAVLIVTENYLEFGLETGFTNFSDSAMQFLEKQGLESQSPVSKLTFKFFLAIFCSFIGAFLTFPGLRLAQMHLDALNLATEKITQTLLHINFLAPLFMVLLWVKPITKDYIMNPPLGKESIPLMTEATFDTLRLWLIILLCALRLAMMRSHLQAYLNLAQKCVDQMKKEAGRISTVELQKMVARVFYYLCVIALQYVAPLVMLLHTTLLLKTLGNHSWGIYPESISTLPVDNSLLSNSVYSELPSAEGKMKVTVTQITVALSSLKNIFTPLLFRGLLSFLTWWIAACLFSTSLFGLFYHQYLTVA
UniProt P04183: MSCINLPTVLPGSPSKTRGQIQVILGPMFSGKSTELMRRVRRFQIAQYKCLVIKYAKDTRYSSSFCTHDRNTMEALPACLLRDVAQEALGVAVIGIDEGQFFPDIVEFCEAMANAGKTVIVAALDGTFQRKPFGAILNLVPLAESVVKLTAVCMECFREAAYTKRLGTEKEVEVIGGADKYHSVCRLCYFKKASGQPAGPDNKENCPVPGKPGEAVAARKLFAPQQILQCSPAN
UniProt Q6YHU6: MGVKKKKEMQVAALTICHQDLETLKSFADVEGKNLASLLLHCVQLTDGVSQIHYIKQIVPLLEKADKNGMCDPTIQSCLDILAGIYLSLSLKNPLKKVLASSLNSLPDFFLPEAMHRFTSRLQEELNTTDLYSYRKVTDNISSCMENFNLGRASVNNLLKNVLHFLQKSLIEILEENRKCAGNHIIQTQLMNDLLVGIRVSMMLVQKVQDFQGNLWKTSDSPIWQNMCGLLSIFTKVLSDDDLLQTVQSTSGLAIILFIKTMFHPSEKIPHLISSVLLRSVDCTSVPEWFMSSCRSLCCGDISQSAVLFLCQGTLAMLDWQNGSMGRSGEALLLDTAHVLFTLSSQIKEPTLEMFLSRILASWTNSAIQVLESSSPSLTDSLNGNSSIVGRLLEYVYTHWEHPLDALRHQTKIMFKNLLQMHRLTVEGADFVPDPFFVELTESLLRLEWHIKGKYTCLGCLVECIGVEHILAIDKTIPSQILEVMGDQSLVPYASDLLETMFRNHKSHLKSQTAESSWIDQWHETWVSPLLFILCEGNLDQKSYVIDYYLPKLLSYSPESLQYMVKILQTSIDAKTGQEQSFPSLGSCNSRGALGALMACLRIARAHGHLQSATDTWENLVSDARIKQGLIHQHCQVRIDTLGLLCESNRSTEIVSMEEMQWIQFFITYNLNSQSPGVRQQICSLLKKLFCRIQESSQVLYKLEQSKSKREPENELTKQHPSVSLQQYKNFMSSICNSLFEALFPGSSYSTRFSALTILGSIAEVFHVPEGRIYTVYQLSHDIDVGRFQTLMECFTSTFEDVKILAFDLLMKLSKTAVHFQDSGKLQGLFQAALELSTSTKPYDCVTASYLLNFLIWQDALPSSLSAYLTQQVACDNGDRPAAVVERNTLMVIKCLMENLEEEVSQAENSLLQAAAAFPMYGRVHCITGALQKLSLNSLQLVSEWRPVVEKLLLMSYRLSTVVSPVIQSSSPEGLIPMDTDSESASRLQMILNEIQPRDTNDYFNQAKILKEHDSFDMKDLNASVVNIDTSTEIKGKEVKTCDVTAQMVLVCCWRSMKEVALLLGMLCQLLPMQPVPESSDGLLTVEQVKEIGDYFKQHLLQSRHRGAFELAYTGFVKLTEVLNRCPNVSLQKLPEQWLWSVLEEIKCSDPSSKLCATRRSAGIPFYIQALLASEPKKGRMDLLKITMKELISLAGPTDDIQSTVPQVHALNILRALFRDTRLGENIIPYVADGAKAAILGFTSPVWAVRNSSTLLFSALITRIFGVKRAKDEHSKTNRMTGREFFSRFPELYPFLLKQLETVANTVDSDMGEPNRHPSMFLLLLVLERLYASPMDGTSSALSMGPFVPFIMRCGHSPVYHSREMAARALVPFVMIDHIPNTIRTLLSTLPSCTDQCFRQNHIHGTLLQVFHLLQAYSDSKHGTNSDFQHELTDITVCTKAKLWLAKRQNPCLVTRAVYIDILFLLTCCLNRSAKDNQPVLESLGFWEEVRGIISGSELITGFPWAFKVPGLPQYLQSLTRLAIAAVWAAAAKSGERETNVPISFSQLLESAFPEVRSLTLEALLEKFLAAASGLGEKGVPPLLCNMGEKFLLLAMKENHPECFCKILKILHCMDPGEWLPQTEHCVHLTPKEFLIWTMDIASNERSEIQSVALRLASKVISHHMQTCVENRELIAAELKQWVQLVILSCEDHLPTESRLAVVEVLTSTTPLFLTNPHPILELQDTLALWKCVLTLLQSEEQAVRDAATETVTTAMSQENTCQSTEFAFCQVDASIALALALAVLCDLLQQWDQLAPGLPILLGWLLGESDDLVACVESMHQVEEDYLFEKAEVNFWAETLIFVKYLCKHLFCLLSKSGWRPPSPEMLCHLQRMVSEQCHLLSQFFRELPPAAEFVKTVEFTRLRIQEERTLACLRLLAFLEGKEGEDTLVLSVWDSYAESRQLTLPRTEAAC
UniProt Q9Y3Q3: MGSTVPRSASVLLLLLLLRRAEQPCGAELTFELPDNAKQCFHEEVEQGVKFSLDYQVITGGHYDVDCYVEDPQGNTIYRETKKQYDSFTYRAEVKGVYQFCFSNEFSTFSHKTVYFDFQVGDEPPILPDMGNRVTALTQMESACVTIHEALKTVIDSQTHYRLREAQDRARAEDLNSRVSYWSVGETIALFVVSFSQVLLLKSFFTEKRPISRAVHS
UniProt Q08117: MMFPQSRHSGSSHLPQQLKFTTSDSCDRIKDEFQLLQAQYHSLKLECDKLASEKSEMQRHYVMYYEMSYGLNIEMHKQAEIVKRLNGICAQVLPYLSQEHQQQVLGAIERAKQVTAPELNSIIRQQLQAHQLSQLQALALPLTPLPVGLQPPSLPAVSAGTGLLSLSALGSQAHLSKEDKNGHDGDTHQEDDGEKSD
UniProt O00142: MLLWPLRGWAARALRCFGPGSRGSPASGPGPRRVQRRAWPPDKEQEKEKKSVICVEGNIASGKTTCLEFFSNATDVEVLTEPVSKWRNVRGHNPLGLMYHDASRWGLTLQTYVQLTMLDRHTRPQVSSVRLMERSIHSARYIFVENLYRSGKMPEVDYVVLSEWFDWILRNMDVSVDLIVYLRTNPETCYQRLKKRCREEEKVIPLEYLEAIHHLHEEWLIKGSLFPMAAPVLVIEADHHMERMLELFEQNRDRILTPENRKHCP
UniProt Q86UB9: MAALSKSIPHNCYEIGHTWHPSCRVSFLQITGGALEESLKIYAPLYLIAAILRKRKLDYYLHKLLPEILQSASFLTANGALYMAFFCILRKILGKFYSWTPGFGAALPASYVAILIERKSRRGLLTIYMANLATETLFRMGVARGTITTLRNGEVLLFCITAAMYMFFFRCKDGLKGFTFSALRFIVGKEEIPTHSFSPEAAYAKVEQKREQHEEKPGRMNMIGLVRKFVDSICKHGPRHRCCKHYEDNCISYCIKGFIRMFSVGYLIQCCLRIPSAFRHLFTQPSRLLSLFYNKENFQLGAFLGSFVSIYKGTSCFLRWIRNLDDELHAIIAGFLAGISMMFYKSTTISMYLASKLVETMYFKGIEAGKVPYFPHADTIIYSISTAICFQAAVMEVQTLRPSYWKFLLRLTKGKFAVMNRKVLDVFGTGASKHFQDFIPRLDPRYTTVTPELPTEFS
UniProt Q53S58: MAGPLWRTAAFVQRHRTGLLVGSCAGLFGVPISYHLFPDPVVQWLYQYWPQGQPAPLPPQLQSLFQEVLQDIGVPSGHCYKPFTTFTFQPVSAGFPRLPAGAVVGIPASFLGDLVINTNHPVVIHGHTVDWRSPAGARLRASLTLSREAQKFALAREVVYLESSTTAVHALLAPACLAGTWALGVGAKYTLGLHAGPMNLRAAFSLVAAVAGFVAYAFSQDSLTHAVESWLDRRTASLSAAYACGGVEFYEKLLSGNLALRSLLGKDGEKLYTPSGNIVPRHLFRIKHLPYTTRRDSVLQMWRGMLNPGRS
UniProt O76062: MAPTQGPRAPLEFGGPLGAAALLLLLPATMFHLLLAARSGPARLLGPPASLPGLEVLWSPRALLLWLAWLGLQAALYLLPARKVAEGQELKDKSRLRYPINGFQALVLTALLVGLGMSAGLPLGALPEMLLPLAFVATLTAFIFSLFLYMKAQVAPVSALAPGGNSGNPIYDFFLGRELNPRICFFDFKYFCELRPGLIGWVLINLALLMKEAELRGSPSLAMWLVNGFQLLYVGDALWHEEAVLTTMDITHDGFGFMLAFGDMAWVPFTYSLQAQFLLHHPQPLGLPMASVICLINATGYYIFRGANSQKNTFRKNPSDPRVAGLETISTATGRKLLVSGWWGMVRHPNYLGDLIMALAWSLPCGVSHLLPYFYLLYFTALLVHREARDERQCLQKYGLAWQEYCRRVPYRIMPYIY
UniProt P07996: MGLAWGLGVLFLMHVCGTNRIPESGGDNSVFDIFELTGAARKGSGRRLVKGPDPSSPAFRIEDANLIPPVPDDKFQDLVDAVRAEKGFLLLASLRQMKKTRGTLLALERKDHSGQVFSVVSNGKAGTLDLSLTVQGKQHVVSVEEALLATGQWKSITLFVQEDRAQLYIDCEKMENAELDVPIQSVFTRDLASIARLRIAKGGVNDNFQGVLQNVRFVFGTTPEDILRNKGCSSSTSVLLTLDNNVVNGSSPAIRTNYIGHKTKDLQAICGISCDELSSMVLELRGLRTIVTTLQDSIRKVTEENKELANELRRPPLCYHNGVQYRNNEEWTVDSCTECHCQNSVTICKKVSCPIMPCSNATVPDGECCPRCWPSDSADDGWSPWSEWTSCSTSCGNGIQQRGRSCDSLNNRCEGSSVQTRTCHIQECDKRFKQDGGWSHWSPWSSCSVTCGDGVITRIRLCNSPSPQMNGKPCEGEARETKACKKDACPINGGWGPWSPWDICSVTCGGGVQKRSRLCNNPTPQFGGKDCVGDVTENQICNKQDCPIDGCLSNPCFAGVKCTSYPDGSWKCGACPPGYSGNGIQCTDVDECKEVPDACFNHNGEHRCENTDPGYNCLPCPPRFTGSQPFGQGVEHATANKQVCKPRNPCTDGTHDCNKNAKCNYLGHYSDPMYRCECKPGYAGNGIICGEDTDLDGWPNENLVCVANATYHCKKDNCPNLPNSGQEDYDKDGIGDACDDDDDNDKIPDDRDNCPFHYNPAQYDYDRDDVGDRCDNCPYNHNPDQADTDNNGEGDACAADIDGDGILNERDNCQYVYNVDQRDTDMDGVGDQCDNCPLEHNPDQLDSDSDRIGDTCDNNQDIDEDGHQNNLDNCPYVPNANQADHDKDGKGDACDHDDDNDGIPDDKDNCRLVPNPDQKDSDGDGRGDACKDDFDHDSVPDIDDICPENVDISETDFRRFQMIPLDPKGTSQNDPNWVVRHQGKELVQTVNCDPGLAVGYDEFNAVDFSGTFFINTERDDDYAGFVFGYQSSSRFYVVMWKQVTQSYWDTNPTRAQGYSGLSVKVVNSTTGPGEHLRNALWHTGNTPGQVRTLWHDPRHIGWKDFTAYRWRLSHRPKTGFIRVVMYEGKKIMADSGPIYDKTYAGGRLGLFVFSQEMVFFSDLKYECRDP

Tests used:
Test in all cases: log2 fold change, soluble protein after heating vs DMSO (PISA); higher = thermal stabilisation; K562 lysate, 10 uM; active = over 0.2 and 3.5 SD of the protein, either way, in both replicates (recomputed)
alvocidib = compound: CN1CC[C@H](c2c(O)cc(O)c3c(=O)cc(-c4ccccc4Cl)oc23)[C@H](O)C1 [alvocidib]
Outline: (§1)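 Pellets of K562 cells were dounce-homogenised in PBS pH 7.4 with 1 mM MgCl2, and the crude extract was held at 1 mg/mL protein for a 30 min treatment with 10 μM compound. Aliquots were heated for 3 min over 48°C-58°C and pooled before NP-40 was added to 0.5% at 4°C. The supernatant from 21,000xg for 90 min was quantified by TMTpro 16plex LC-MS/MS with channel sums equalised. Values are reported from duplicates as log-two fold change in thermal stability relative to solvent controls.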

Tubastatin A = compound: CN1CCc2c(c3ccccc3n2Cc2ccc(C(=O)NO)cc2)C1 [Tubastatin A]
Outline: as §1

[1] = compound: CNC(=O)C1=CC=CC=C1NC2=NC(=NC=C2Cl)NC3=C(C=C(C=C3)N4CCOCC4)OC
Outline: as §1

defactinib = compound: CNC(=O)c1ccc(Nc2ncc(C(F)(F)F)c(NCc3nccnc3N(C)S(C)(=O)=O)n2)cc1 [defactinib]
Outline: as §1

[2] = compound: CNc1nc(-c2ccc3c(N)n[nH]c3c2)cc(N2C[C@@H](C(=O)NC3CCCCC3)CC[C@H]2C)n1
Outline: as §1

encorafenib = compound: COC(=O)N[C@@H](C)CNc1nccc(-c2cn(C(C)C)nc2-c2cc(Cl)cc(NS(C)(=O)=O)c2F)n1 [encorafenib]
Outline: as §1

[3] = compound: COC(=O)[C@H](CCSC)NC(=O)C1=C(C=C(C=C1)NC[C@H](CS)N)C2=CC=CC=C2
Outline: as §1

alisertib = compound: COc1cc(Nc2ncc3c(n2)-c2ccc(Cl)cc2C(c2c(F)cccc2OC)=NC3)ccc1C(=O)O [alisertib]
Outline: as §1

[4] = compound: COc1cc2nc(-c3cc(F)ccc3O)nc(N[C@@H]3CNC[C@H]3C(C)(C)O)c2cc1OC
Outline: as §1

gefitinib = compound: COc1cc2ncnc(Nc3ccc(F)c(Cl)c3)c2cc1OCCCN1CCOCC1 [gefitinib]
Outline: as §1

lapatinib = compound: CS(=O)(=O)CCNCc1ccc(-c2ccc3ncnc(Nc4ccc(OCc5cccc(F)c5)c(Cl)c4)c3c2)o1 [lapatinib]
Outline: as §1

pictilisib = compound: CS(=O)(=O)N1CCN(Cc2cc3nc(-c4cccc5[nH]ncc45)nc(N4CCOCC4)c3s2)CC1 [pictilisib]
Outline: as §1

[5] = compound: C[C@H](C1=CC=C(C=C1)C(=O)NC2=C3C=CNC3=NC=C2)N
Outline: as §1

duvelisib = compound: C[C@H](Nc1ncnc2nc[nH]c12)c1cc2cccc(Cl)c2c(=O)n1-c1ccccc1 [duvelisib]
Outline: as §1

gandotinib = compound: Cc1cc(Nc2cc(CN3CCOCC3)c3nc(C)c(Cc4ccc(Cl)cc4F)n3n2)n[nH]1 [gandotinib]
Outline: as §1

tozasertib = compound: Cc1cc(Nc2cc(N3CCN(C)CC3)nc(Sc3ccc(NC(=O)C4CC4)cc3)n2)n[nH]1 [tozasertib]
Outline: as §1

bafetinib = compound: Cc1ccc(NC(=O)c2ccc(CN3CC[C@H](N(C)C)C3)c(C(F)(F)F)c2)cc1Nc1nccc(-c2cncnc2)n1 [bafetinib]
Outline: as §1

[6] = compound: Cc1cccc(CC(=O)N2CCc3c2ccc(-c2cn(C)c4ncnc(N)c24)c3F)n1
Outline: as §1

crizotinib = compound: C[C@@H](Oc1cc(-c2cnn(C3CCNCC3)c2)cnc1N)c1c(Cl)ccc(F)c1Cl [crizotinib]
Outline: as §1

doramapimod = compound: Cc1ccc(-n2nc(C(C)(C)C)cc2NC(=O)Nc2ccc(OCCN3CCOCC3)c3ccccc23)cc1 [doramapimod]
Outline: as §1

Target	log2 fold change (alvocidib)	log2 fold change (Tubastatin A)	log2 fold change [1]	log2 fold change (defactinib)	log2 fold change [2]	log2 fold change (encorafenib)	log2 fold change [3]	log2 fold change (alisertib)	log2 fold change [4]	log2 fold change (gefitinib)	log2 fold change (lapatinib)	log2 fold change (pictilisib)	log2 fold change [5]	log2 fold change (duvelisib)	log2 fold change (gandotinib)	log2 fold change (tozasertib)	log2 fold change (bafetinib)	log2 fold change [6]	log2 fold change (crizotinib)	log2 fold change (doramapimod)
TMEM123 (UniProt Q8N131)	inactive: -0.027	inactive: 0.046	inactive: -0.04	inactive: -0.105	inactive: -0.273	inactive: -0.012	inactive: -0.045	inactive: 0.023	inactive: -0.022	inactive: 0.023	inactive: -0.105	inactive: 0.047	inactive: -0.005	inactive: 0.067	inactive: 0.033	inactive: 0.068	inactive: -0.116	inactive: -0.02		
TM9SF2 (UniProt Q99805)	inactive: -0.047	inactive: -0.005	inactive: 0	inactive: 0.001	inactive: 0.009	inactive: 0.042	inactive: -0.036	inactive: 0.002	inactive: 0.008	inactive: 0.021	inactive: -0.057	inactive: -0.019	inactive: -0.094	inactive: -0.006	inactive: 0.036	inactive: -0.008	inactive: -0.041	inactive: 0.083	inactive: -0.007	inactive: 0.014
TMEM161B (UniProt Q8NDZ6)	inactive: -0.03	inactive: 0.035	inactive: -0.022	inactive: 0.067		inactive: 0.047	inactive: 0	inactive: -0.222	inactive: 0.033	inactive: -0.008	inactive: -0.057	inactive: -0.05	inactive: 0.009		active: -0.289	inactive: 0.009	inactive: 0.007	inactive: 0.077	inactive: 0.007	inactive: -0.03
TMEM181 (UniProt Q9P2C4)	inactive: -0.077	inactive: 0.009	inactive: -0.028	inactive: -0.034	inactive: -0.053	inactive: -0.008	inactive: -0.103		inactive: 0.008		inactive: 0.044	inactive: -0.005	inactive: 0.045	inactive: 0.032	inactive: -0.014	inactive: 0.088	inactive: 0.002	inactive: -0.046	inactive: 0.027	inactive: 0.023
TK1 (UniProt P04183)	inactive: -0.051	inactive: 0.004	inactive: 0.006	inactive: -0.011	inactive: 0.032	inactive: -0.018	inactive: -0.025	inactive: -0.002	inactive: 0.017	inactive: 0.013	inactive: -0.006	inactive: 0.022	inactive: -0.133	inactive: 0.023	inactive: 0.062	inactive: 0	inactive: 0.009	inactive: 0.021	inactive: 0.022	inactive: 0
TIMM10B (UniProt Q9Y5J6)	inactive: 0.139	inactive: 0.125	inactive: 0.214	inactive: 0.074	inactive: 0.035							inactive: 0.002	inactive: 0.197	inactive: -0.051	inactive: -0.057		inactive: 0.102	inactive: -0.108	inactive: -0.007	inactive: -0.003
THADA (UniProt Q6YHU6)	inactive: -0.002	inactive: -0.165	inactive: 0.008	inactive: 0.014	inactive: -0.013	inactive: 0.022	inactive: 0.031	inactive: 0.01	inactive: 0.012	inactive: 0.001	inactive: -0.042	inactive: -0.06	inactive: -0.041	inactive: -0.02	inactive: -0.064	inactive: -0.003	inactive: -0.041	inactive: 0.086	inactive: -0.073	inactive: -0.002
TMED3 (UniProt Q9Y3Q3)	inactive: 0	inactive: 0.146	inactive: 0.019						inactive: -0.197		inactive: 0.052	inactive: 0.061	inactive: -0.026		inactive: -0.049		inactive: 0.151	inactive: 0.105	inactive: 0.008	inactive: -0.032
TLE5 isoform 2 (UniProt Q08117)	inactive: -0.022	inactive: 0.113	inactive: 0.036	inactive: 0.069	inactive: 0.007	inactive: 0.014	inactive: 0.035	inactive: 0.025	inactive: 0.012	inactive: -0.087	inactive: 0.077	inactive: -0.075	inactive: 0.007	inactive: 0.052	inactive: 0.006	inactive: 0.119	inactive: 0.03	inactive: 0.065	inactive: 0.006	inactive: 0.006
TK2 isoform 6 (UniProt O00142)	inactive: 0.045	inactive: 0.064	inactive: 0.008	inactive: 0.02	inactive: 0.08	inactive: -0.079	inactive: -0.034		inactive: -0.069		inactive: -0.065	inactive: 0.034	inactive: 0.022	inactive: 0.075	inactive: 0.075	inactive: 0.032	inactive: -0.143	inactive: 0.061	inactive: -0.06	inactive: 0.061
TMEM135 (UniProt Q86UB9)	inactive: 0.119	inactive: 0.008	inactive: -0.001	inactive: 0.205	inactive: -0.156	inactive: 0.088	inactive: -0.038	inactive: -0.018	inactive: 0.09	inactive: 0.021	inactive: -0.039	inactive: -0.007	inactive: 0.101	inactive: 0.074	inactive: -0.048	inactive: -0.051	inactive: -0.051	inactive: -0.099	inactive: 0.078	inactive: -0.021
TMEM177 (UniProt Q53S58)	inactive: 0.042	inactive: 0.05	inactive: 0.075	inactive: -0.009		inactive: 0.019	inactive: 0.153		inactive: 0.002		inactive: 0.018	inactive: 0.002	inactive: -0.005		inactive: -0.125	inactive: -0.016	inactive: -0.059	inactive: -0.013	inactive: 0.053	inactive: -0.056
TICAM1 (UniProt Q8IUC6)	inactive: -0.065	inactive: -0.019	inactive: -0.06		inactive: 0.01			inactive: 0.03	inactive: -0.009	inactive: -0.022	inactive: 0.019	inactive: 0.03	inactive: -0.153	inactive: 0.026	inactive: 0.139		inactive: -0.035	inactive: 0.077	inactive: -0.091	inactive: -0.013
TGM2 (UniProt A2A299)								inactive: 0.044	inactive: -0.008	inactive: -0.048	inactive: -0.144									
TM7SF2 (UniProt O76062)	inactive: 0.067												inactive: 0.042		inactive: 0.158			inactive: -0.113	inactive: 0.234	inactive: -0.112
TIGAR (UniProt Q9NQ88)		inactive: 0.206	inactive: -0.097	inactive: -0.133	inactive: -0.243	inactive: -0.013	inactive: -0.302							inactive: 0.106		inactive: 0.041			inactive: -0.034	inactive: 0.127
TMC6 (UniProt Q7Z403)		inactive: -0.085	inactive: 0.109	inactive: 0.094				inactive: -0.052	inactive: -0.176	inactive: 0.03	inactive: 0.026								inactive: -0.036	inactive: 0
THBS1 (UniProt P07996)	inactive: -0.048			inactive: -0.014	inactive: -0.065								inactive: 0.038	inactive: -0.031	inactive: 0.01			inactive: 0.147	inactive: -0.002	inactive: 0.049
TM6SF1 (UniProt Q9BZW5)	inactive: 0.028		inactive: -0.014	inactive: 0.008	inactive: -0.019	inactive: -0.018	inactive: -0.096		inactive: 0.004		inactive: 0.05	inactive: -0.089	inactive: -0.133	inactive: 0.045	inactive: 0.003	inactive: 0.041	inactive: -0.075	inactive: 0.065	inactive: 0.096	inactive: 0.042

Laid out differently: entries from further up
Target,log2 fold change (alvocidib),log2 fold change (Tubastatin A),log2 fold change [1],log2 fold change (defactinib),log2 fold change [2],log2 fold change (encorafenib),log2 fold change [3],log2 fold change (alisertib),log2 fold change [4],log2 fold change (gefitinib),log2 fold change (lapatinib),log2 fold change (pictilisib),log2 fold change [5],log2 fold change (duvelisib),log2 fold change (gandotinib),log2 fold change (tozasertib),log2 fold change (bafetinib),log2 fold change [6],log2 fold change (crizotinib),log2 fold change (doramapimod)
TIGAR (UniProt Q9NQ88),,inactive: 0.206,inactive: -0.097,inactive: -0.133,inactive: -0.243,inactive: -0.013,inactive: -0.302,,,,,,,inactive: 0.106,,inactive: 0.041,,,inactive: -0.034,inactive: 0.127
TMC6 (UniProt Q7Z403),,inactive: -0.085,inactive: 0.109,inactive: 0.094,,,,inactive: -0.052,inactive: -0.176,inactive: 0.03,inactive: 0.026,,,,,,,,inactive: -0.036,inactive: 0
